Experimental data as given in paper PMC2613885.

Target: Myc-Vilse
Experiment: co-IP; Myc-Vilse and V5-human Robo4 co-transfected in HEK293T for 36 h; RIPA lysates; IP with myc antibody, western with V5 antibody; 4°C; with or without AP-Slit2N (40 ng/ml, 1 h) on the cells

binding: binds
B1: V5-tagged human Robo4 (receptor, UniProt Q8WZ75 28-1007)
chain: QDSPPQILVHPQDQLFQGPGPARMSCQASGQPPPTIRWLLNGQPLSMVPPDPHHLLPDGTLLLLQPPARGHAHDGQALSTDLGVYTCEASNRLGTAVSRGARLSVAVLREDFQIQPRDMVAVVGEQFTLECGPPWGHPEPTVSWWKDGKPLALQPGRHTVSGGSLLMARAEKSDEGTYMCVATNSAGHRESRAARVSIQEPQDYTEPVELLAVRIQLENVTLLNPDPAEGPKPRPAVWLSWKVSGPAAPAQSYTALFRTQTAPGGQGAPWAEELLAGWQSAELGGLHWGQDYEFKVRPSSGRARGPDSNVLLLRLPEKVPSAPPQEVTLKPGNGTVFVSWVPPPAENHNGIIRGYQVWSLGNTSLPPANWTVVGEQTQLEIATHMPGSYCVQVAAVTGAGAGEPSRPVCLLLEQAMERATQEPSEHGPWTLEQLRATLKRPEVIATCGVALWLLLLGTAVCIHRRRRARVHLGPGLYRYTSEDAILKHRMDHSDSQWLADTWRSTSGSRDLSSSSSLSSRLGADARDPLDCRRSLLSWDSRSPGVPLLPDTSTFYGSLIAELPSSTPARPSPQVPAVRRLPPQLAQLSSPCSSSDSLCSRRGLSSPRLSLAPAEAWKAKKKQELQHANSSPLLRGSHSLELRACELGNRGSKNLSQSPGAVPQALVAWRALGPKLLSSSNELVTRHLPPAPLFPHETPPTQSQQTQPPVAPQAPSSILLPAAPIPILSPCSPPSPQASSLSGPSPASSRLSSSSLSSLGEDQDSVLTPEEVALCLELSEGEETPRNSVSPMPRAPSPPTTYGYISVPTASEFTDMGRTGGGVGPKGGVLLCPPRPCLTPTPSEGSLANGWGSASEDNAASARASLVSSSDGSFLADAHFARALAVAVDSFGFGLEPREADCVFIDASSPPSPRDEIFLTPNLSLPLWEWRPDWLEDMEVSHTQRLGRGMPPWPPDSQISSQRSQLHCRMPKAGASPVDYS

No constants are given. Whether binding was seen depends on the method and setting. Binding seen in cells or lysates may run through a third protein. Binding can be weak; no strength is given. Where a sequence is shown, tags or fusion partners need not be part of it.
